Some of these results come from one statement about several compounds together.
Target: T1, VLA-4 (Homo sapiens, UniProt P05556+P13612)
T1 construct: confirmed that the cells expressed both the α4 and β1 chains of VLA-4; host or cells: Jurkat cells, clone E6-1
Assay: Antagonism of VLA-4 dependent binding to VCAM-Ig fusion protein (125I-VCAM-Ig binding to Jurkat cells)
Conditions: 1 mM MnCl2, 30 minutes at room temperature, ten point titration, read-out: IC50 in the inhibition of VCAM-Ig binding to VLA4

The chains behind the UniProt entries cited, without tags or fusion partners. Residues count along the entry.
UniProt P13612, 34-1032: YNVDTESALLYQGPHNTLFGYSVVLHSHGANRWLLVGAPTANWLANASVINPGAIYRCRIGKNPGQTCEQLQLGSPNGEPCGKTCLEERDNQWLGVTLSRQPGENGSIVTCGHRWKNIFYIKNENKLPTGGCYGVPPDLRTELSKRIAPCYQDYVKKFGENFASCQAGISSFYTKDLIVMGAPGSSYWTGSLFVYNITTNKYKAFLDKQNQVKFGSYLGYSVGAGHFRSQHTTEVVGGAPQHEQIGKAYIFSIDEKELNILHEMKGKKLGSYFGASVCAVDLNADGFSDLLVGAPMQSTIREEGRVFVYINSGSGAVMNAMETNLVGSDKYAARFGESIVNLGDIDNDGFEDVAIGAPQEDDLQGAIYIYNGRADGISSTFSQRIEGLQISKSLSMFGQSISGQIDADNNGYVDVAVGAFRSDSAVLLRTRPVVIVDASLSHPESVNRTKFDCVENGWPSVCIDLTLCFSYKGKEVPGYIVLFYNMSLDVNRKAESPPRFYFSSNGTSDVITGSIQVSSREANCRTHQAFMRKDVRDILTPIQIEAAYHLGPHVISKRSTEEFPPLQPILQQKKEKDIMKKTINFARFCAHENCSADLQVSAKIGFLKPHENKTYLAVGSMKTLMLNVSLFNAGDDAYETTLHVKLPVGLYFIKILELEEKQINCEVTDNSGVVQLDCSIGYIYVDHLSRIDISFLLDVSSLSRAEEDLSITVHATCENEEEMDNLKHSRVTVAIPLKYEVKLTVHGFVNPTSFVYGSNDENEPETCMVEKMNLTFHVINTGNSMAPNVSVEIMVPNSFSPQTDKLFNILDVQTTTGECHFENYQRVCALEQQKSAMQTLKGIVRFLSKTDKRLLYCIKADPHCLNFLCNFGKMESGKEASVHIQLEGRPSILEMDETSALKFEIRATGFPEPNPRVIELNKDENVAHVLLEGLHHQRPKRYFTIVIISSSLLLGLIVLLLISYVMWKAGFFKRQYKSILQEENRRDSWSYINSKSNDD

| SMILES | IC50 |
| --- | --- |
| O=C(N[C@@H](Cc1ccccc1)C(=O)O)c1cccn1S(=O)(=O)c1cc(Cl)cc(Cl)c1 [Example 1, N-[N-(3,5-Dichlorobenzenesulfonyl)pyrrole-2-carbonyl]-(L)-phenylalanine] | < 10 nM |
| O=C(N[C@@H](CCc1ccccc1)C(=O)O)c1cccn1S(=O)(=O)c1cc(Cl)cc(Cl)c1 [Example 2, N-[N-(3,5-Dichlorobenznesulfonyl)pyrrole-2-carbonyl]-(L)-homophenylalanine] | < 10 nM |
| CCCC[C@H](NC(=O)c1cccn1S(=O)(=O)c1cc(Cl)cc(Cl)c1)C(=O)O [Example 3, N-[N-(3,5-Dichlorobenzenesulfonyl)pyrrole-2-carbonyl]-(L)-norleucine] | < 10 nM |
| CC(C)(C)Oc1ccc(C[C@H](NC(=O)c2cccn2S(=O)(=O)c2cc(Cl)cc(Cl)c2)C(=O)O)cc1 [Example 4, N-[N-(3,5-Dichlorobenznesulfonyl)pyrrole-2-carbonyl]-(L)-O-tert-butyl-tyrosine] | < 10 nM |
| O=C(N[C@@H](Cc1ccc(OCc2ccccc2)cc1)C(=O)O)c1cccn1S(=O)(=O)c1cc(Cl)cc(Cl)c1 [Example 5, N-[N-(3,5-Dichlorobenznesulfonyl)pyrrole-2-carbonyl]-(L)-O-benzyl-tyrosine] | < 10 nM |
| COc1ccccc1-c1ccc(C[C@H](NC(=O)c2cccn2S(=O)(=O)c2cc(Cl)cc(Cl)c2)C(=O)O)cc1 [Example 6] | < 10 nM |
| COc1cccc(-c2ccc(C[C@H](NC(=O)c3cccn3S(=O)(=O)c3cc(Cl)cc(Cl)c3)C(=O)O)cc2)c1 [Example 7] | < 10 nM |
| N#Cc1ccccc1-c1ccc(C[C@H](NC(=O)c2cccn2S(=O)(=O)c2cc(Cl)cc(Cl)c2)C(=O)O)cc1 [Example 8] | < 10 nM |
